These are yes or no findings as the source states them, for the method shown. Some results given as binding are weak or reduced against the parent protein; the word gives no strength.
Target: human C5a receptor with C-terminal mGFP, on HEK cells (human) (UniProt P21730)
Experiment: flow cytometry on cells

By UniProt entry, the sequences of proteins in these tests, tags left out.
UniProt P21730: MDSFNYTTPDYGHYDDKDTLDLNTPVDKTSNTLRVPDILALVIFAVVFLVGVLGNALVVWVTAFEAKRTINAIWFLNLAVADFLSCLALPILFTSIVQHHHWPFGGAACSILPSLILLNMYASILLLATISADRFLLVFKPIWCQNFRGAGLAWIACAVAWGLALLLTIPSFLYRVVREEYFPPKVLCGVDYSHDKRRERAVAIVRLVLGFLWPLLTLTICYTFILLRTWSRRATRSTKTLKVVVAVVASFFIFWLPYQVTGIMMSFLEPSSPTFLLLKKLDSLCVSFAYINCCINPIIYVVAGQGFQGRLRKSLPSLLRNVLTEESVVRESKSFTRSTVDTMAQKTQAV

Question: “wild type LukS (from UniProt O80066 29-312)” was tested. Which binding did it give?
Answer: binds

Reference: paper doi:10.1101/127514
